This assay can be described thus: qHTS Assay for Lipid Storage Modulators in Drosophila S3 Cells.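 For cell number change: cells counted by Cell Tracker Red CMTPX staining in the red channel.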 Conditions: BODIPY lipid droplet fluorescence, 18-24 h; for cell number change: measured here: cell count max response, cells fed with added oleic acid. In short, it runs like this:
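Drosophila S3 cells loaded with oleic acid (400 uM, as added) and compounds at several concentrations; lipid droplets imaged by 488-nm laser-scanning cytometry, 500–530 nm intensity and object ratio to cell channel. Percent activity normalized to 20 uM Triacsin C.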
On the technique in general: Quantitative high-throughput screening tests each substance at several concentrations.

The mark [1] stands for this setting: measured here: cell number channel AC50, cells fed with added oleic acid.
Setting [2] is: measured here: lipid fluorescence (Fed channel) AC50, cells fed with added oleic acid.

The other results are listed elsewhere or left out. Shown are side measurements of this screen, not its main read-out; they come without a call. The list favours compounds with an active or inconclusive main result. Potencies come from curve fits of mixed quality, noted in brackets.

As usually defined, the AC50 is the midpoint of the concentration-response curve, whichever way the signal moves. A lower AC50 goes with activity at low concentration. Turning to `COc1cccc(-n2c([S-])c(C(=O)Nc3ccc(C(F)(F)F)cc3)[n+]3ccccc23)c1`, the cell number change worked out at 41%. The AC50 under setting [1] was 14.6 µM [rising, partial curve].
`COc1ccc(S(=O)(=O)NNC(=O)c2ccccc2-n2cccc2)cc1`: the cell number change stood at 44.8%. Under setting [1], the AC50 was 20.6 µM [rising, single point].
`O=[N+]([O-])c1ccc(SCCc2ccccn2)cc1`: the cell number change was 19.3%. Further, the AC50 under setting [2] was 29.1 µM [rising, single point].
With `Clc1ccc(CO/N=C2\CCCc3nonc32)c(Cl)c1`, the cell number change turned out to be 4.49%. For the same compound, the AC50 under setting [2] was 4.61 µM [rising, full curve, poor fit].
`Cc1nnc(NC(=O)c2cccc(NC(=O)C(C)C)c2)s1`: the cell number change was -22.1%. In addition, the AC50 under setting [2] was 1.16 µM [falling, full curve].
Consider `CCCCCCOc1ccc(/C(C)=N/NC2=NCCN2)cc1[N+](=O)[O-]`, for which the cell number change is -21.2%. For the same compound, the AC50 under setting [2] was 2.06 µM [falling, partial curve, poor fit].
For `O=C(CNS(=O)(=O)c1c(Cl)cccc1Cl)N1CCCCCC1`, the cell number change amounted to 31.4%. In addition, the AC50 under setting [1] is 29.1 µM [rising, partial curve, poor fit].
`O=C1CC(N2CCOCC2)C(=O)N1c1ccc2c(c1)OCO2` (centres undefined): the cell number change was found to be 15.6%.
As to `CCCOc1ccc(NC(=O)CC2C(=O)N(C)C(=S)N2Cc2cccs2)cc1` (centres undefined), the cell number change is -53.2%. In addition, the AC50 under setting [1] was 23.1 µM [falling, partial curve, poor fit]. Further, under setting [2], the AC50 is 25.9 µM [falling, partial curve, poor fit].
Turning to `CCn1nnnc1NC(=O)c1cccc(OC)c1`, the cell number change was -14.3%. Further, under setting [2], the AC50 was 0.082 µM [falling, full curve, poor fit].
Take `O=C(NNc1ccc([N+](=O)[O-])cc1[N+](=O)[O-])c1ccco1`: the cell number change is -38.1%. The AC50 under setting [1] is 14.1 µM [falling, single point]. The AC50 under setting [2] was 10 µM [falling, partial curve].
As to `COc1ccc(/C(CC2OC(=O)c3ccccc32)=N\NC(N)=O)cc1` (centres undefined), the cell number change is -17.5%. Also, under setting [1], the AC50 was 0.731 µM [rising, partial curve, poor fit].
Regarding `O=C(Nc1ccccc1N1CCOCC1)c1cc(F)cc(F)c1`, the cell number change was 45.2%. Also, the AC50 under setting [1] was 7.31 µM [rising, partial curve, poor fit]. Besides, the AC50 under setting [2] was 1.3 µM [rising, full curve, poor fit].
For `Cc1cccc(-n2ccnc2SCC(=O)Nc2nccs2)c1`, the cell number change is -31.2%. The AC50 under setting [1] is 18.4 µM [falling, single point]. Moreover, the AC50 under setting [2] is 16.4 µM [falling, single point].
With `Cc1ccc(C)c(-c2cc(C(=O)Nc3sc(C)c(C)c3C(N)=O)c3ccccc3n2)c1`, under setting [2], the AC50 is 25.9 µM [falling, single point].
`Cc1ccccc1NC(=O)CN(C)S(=O)(=O)c1cccc2cccnc12`: the cell number change came to 52.9%. For the same compound, the AC50 under setting [1] was 2.59 µM [rising, partial curve, poor fit].
As for `COc1ccc(NC(=O)COc2ccc(/C=N/n3c(C)nnc3C)cc2OC)cc1`, the AC50 was 0.058 µM [rising, full curve, poor fit] under setting [1] and 6.51 µM [rising, partial curve, poor fit] under setting [2].
With `CCOc1ccc(NC(=O)c2ccccc2OC)cc1`, the cell number change was found to be 26.9%. Under setting [1], the AC50 was 0.366 µM [rising, full curve]. Further, under setting [2], the AC50 was 0.517 µM [rising, full curve].
As for `CN1CCN(Cc2c(O)ccc3c(=O)c(Oc4ccccc4Cl)c(C(F)(F)F)oc23)CC1`, the cell number change turned out to be 1.71%.
Turning to `COc1ccccc1-c1cc(C(=O)N2CCCCC2)no1`, the cell number change is 43.5%. Moreover, the AC50 under setting [1] is 29.1 µM [rising, single point]. The AC50 under setting [2] was 13 µM [rising, partial curve].
With `CCOC(=O)c1sc(NC(=O)C2CC(=O)N(c3ccc(OC)cc3)C2)nc1C` (centres undefined), the cell number change is -2.56%.
`COC(=O)/C=C1\SC(=NC(=O)c2ccc(C)cc2)NC1=O`: the cell number change was -35.1%. Moreover, the AC50 under setting [1] is 0.103 µM [rising, full curve, poor fit].
For `N#C/C(=C\c1cccc([N+](=O)[O-])c1)C(=O)NCC1CCCO1` (centres undefined), the cell number change was -35.1%. Further, the AC50 under setting [1] was 23.1 µM [falling, single point].
For the compound `O=c1ccnc(SCCC(F)=C(F)F)[nH]1`, the cell number change was 1.96%. Also, the AC50 under setting [1] was 0.00517 µM [falling, full curve, poor fit]. The AC50 under setting [2] was 6.51 µM [falling, partial curve, poor fit].
Consider `Cc1ccc(C(=O)Nc2ccccc2C(=O)Nc2ccccn2)cc1Cl`, for which the cell number change is -11.4%. Under setting [2], the AC50 is 29.1 µM [falling, single point].
As to `COc1ccc(CNC(=O)COc2ccc(S(=O)(=O)N3CCOCC3)cc2)cc1`, the cell number change is 29.1%. Also, the AC50 under setting [2] is 0.517 µM [rising, single point].
In the case of `N#Cc1ccc(Oc2ccc(S(=O)(=O)N3CCCCC3)cn2)cc1`, the AC50 under setting [1] was 0.13 µM [falling, full curve, poor fit].
Turning to `CC(=O)Nc1ccc(O)cc1`, the cell number change came to 5.23%. For the same compound, under setting [2], the AC50 was 11.6 µM [falling, partial curve, poor fit].
On to `CCOC(=O)C1=C(C)NC(=O)NC1c1ccc(F)cc1` (centres undefined), for which the cell number change was 0.604%. Further, the AC50 under setting [2] is 23.1 µM [rising, single point].
`O=C(NCc1cccs1)C1CCCN1C(=O)Nc1ccccc1Cl` (centres undefined): the cell number change was -2.63%.
Turning to `CCOC(=O)C1=C(C)N=c2s/c(=C/c3ccccc3)c(=O)n2C1c1ccc(OC)c(OC)c1` (centres undefined), the cell number change is 10.4%. For the same compound, the AC50 under setting [2] is 16.4 µM [falling, single point].
For `CCOc1cc(CNCc2cccnc2)cc(Br)c1OCC(N)=O`, the cell number change is -9.89%. The AC50 under setting [2] was 0.731 µM [falling, full curve, poor fit].
Take `N#C/C(=C\Nc1ccc2cn[nH]c2c1)c1nc(-c2ccc(Cl)cc2)cs1`: the cell number change is -73.5%. The AC50 under setting [1] is 10.3 µM [falling, partial curve]. The AC50 under setting [2] was 5.17 µM [falling, partial curve].
As for `O=C(CSc1nnc(-c2ccc(NS(=O)(=O)c3ccccc3)cc2)o1)NCC1CCCO1` (centres undefined), the cell number change was determined as 16.6%. For the same compound, the AC50 under setting [1] is 0.58 µM [rising, partial curve].
Turning to `CCN(CC)CCCCCC(=O)Nc1ccccc1C(=O)Nc1ccccc1`, the cell number change was 4.2%.
Regarding `O=C(O)CCC(=O)N1CCN(S(=O)(=O)c2cccs2)CC1`, the cell number change worked out at 7.31%. Also, the AC50 under setting [2] is 0.00411 µM [rising, full curve, poor fit].
Turning to `CC1CCCCN1CCNC(=O)c1cc2c(-c3ccccc3F)nn(C)c2s1` (centres undefined), the cell number change was -20.3%. Further, the AC50 under setting [2] is 0.82 µM [rising, full curve].
For the compound `CN(C)S(=O)(=O)c1ccc(NC(=O)CNc2cc(S(=O)(=O)N3CCCC3)ccc2OCC(F)(F)F)cc1`, the cell number change is -40.3%. Under setting [1], the AC50 is 0.366 µM [falling, full curve]. The AC50 under setting [2] was 5.8 µM [falling, full curve].
In the case of `Cc1ccc(CNC(=O)C2CCCN(S(=O)(=O)N3CCC(C)CC3)C2)cc1` (centres undefined), the cell number change was -13.7%. The AC50 under setting [2] is 6.51 µM [falling, single point].
In the case of `CCOc1ccc2[nH]c(=O)c(CN(Cc3ccc(F)cc3)C(=O)c3ccco3)cc2c1`, the cell number change was 4.14%. In addition, under setting [1], the AC50 is 0.00461 µM [falling, full curve, poor fit].
As to `O=C(COC(=O)c1nn(-c2ccccc2)c(=O)c2ccccc12)NC1CCS(=O)(=O)C1` (centres undefined), the cell number change is -35.9%. The AC50 under setting [1] is 0.13 µM [falling, full curve, poor fit].
As to `N=C1C(c2nc3ccccc3[nH]2)=C(O)CN1NC(=O)c1c[nH]c2ccccc12`, the AC50 under setting [2] was 6.51 µM [falling, single point].
`Cc1nc2cc(NS(=O)(=O)c3c(C)c(C)cc(C)c3C)ccc2s1`: the cell number change is -23.3%. For the same compound, under setting [2], the AC50 was 16.4 µM [falling, partial curve, poor fit].
Turning to `Cc1ccc(-n2c(C)cc(C(=O)Cn3nc(C(=O)O)c4ccccc4c3=O)c2C)cc1`, the cell number change was -20.4%. Under setting [2], the AC50 was 16.4 µM [falling, partial curve, poor fit].
With `Cc1cccc2c1-c1sc(C(=O)Nc3nccs3)cc1CO2`, the cell number change is -11%. For the same compound, the AC50 under setting [1] was 4.61 µM [rising, partial curve, poor fit]. In addition, under setting [2], the AC50 is 0.206 µM [rising, full curve, poor fit].
For `Cn1c(CC(=O)Nc2ccc(Cl)c(Cl)c2)nnc1SCC(=O)N1CCN(c2ccccc2)CC1`, the cell number change was 141%.
As to `Cc1cccc(C)c1NC1=NC(=S)N(c2ccc(N(C)C)cc2)C1(C)C`, the cell number change is -21.9%. In addition, the AC50 under setting [2] is 14.6 µM [falling, partial curve, poor fit].
For the compound `O=C(NCCN1CCCC1=O)C1CCC(=O)N(CCc2ccc(Cl)cc2)C1` (centres undefined), the cell number change was determined as 11.9%.
With `COc1cc(OC)cc(C(=O)N[C@H](C(=O)OCC(=O)Nc2ccc(C(N)=O)cc2)C(C)C)c1`, the cell number change amounted to 43.6%. Besides, the AC50 under setting [1] is 4.11 µM [rising, single point]. Besides, the AC50 under setting [2] is 18.4 µM [rising, single point].
Regarding `O=C(O)Cc1ccc2ocnc2c1`, the cell number change stood at 12.5%. For the same compound, the AC50 under setting [2] was 20.6 µM [rising, single point].
For `CCc1ccc(/C=C/C(=O)c2ccc(S(=O)(=O)N(C)C)cc2)cc1`, the cell number change came out at 7.1%.
With `COc1ccc(CN(C)C(=O)C2CCN(C(=O)Nc3ccccc3)CC2)cc1`, the cell number change is -0.105%. For the same compound, the AC50 under setting [2] was 0.731 µM [falling, partial curve, poor fit].
As for `CN1CC(=O)N(CC(=O)N2N=C(c3ccc(Cl)cc3)CC2c2ccco2)C1=O` (centres undefined), the cell number change is -25.2%. Besides, the AC50 under setting [2] was 32.6 µM [falling, single point].
On to `Nc1cc([N+](=O)[O-])ccc1O`, for which the AC50 under setting [2] was 23.1 µM [falling, single point].
On to `C/C(Cn1ncc(N2CCOCC2)c(Cl)c1=O)=N\O`, for which the cell number change stood at 29.8%. Moreover, the AC50 under setting [1] is 0.82 µM [rising, full curve, poor fit]. For the same compound, the AC50 under setting [2] was 8.2 µM [rising, partial curve].
On to `CC(C)OC(=O)c1sc2nc(-c3ccccc3)ccc2c1N`, for which the cell number change was -56.1%. In addition, the AC50 under setting [1] is 25.9 µM [falling, partial curve]. Besides, the AC50 under setting [2] was 23.1 µM [falling, partial curve].
`CC1CCCCC1NC(=O)c1ccc(NS(=O)(=O)c2ccc3[nH]c(=O)[nH]c3c2)cc1` (centres undefined): the cell number change is -24.1%.

Source of the values: PubChem BioAssay AID2685 (National Center for Advancing Translational Sciences (NCATS), 2010).
